{"source": "paper PMC4198210", "target": "P-PhoP-His (phosphorylated PhoP) (Photorhabdus luminescens TT01) (UniProt Q7N3B2)", "assay": "EMSA", "settings": "acetyl phosphate-phosphorylated PhoP, shift observed at 1.5 uM, poly(dI-dC) and BSA present; recombinant protein; residues 1-222; protein details: N-terminal His; label: 5'-32P; probe letters rebuilt from the primers and the genome", "note": "Construct, isoform or probe ends are uncertain for at least one entry.", "data": [{"sequence": "CGGGATCCCCTACCGCTACCACTGAAGCCACTAATGTTCTTTTCATTGAAAATCCCTAATATTATATAAAATTATAGAAAAGATTAATTACGAGGCGCGATTATTTATCAACAATCAATAGAAAACAACTCAATCTCGTTTATTGTTAATTTCCCGTTTAACTAAGAAACTAGTGACTGCTCCGCTGTATCATGGAAATCTTCCCACTGCAATCGACTATTGTTCGTACTTATTAGTTCTTTATTACTATTGGAATAAACGCAAAAAAATTCCCTGTTTTACCACAGGGAATTTTGTATAGAATAGATAGTGATAACTAATAAAGGAATAATCTTCAGATTACATGGCTAAACCTGGATACCCGCTTTGAATTCCG (double strand) [ail1 Pl promoter region (360 bp)]", "values": [{"measurement": "binding result", "value": "binds"}]}]}
